This assay has as its target DsRed-tagged N-cadherin cytoplasmic domain (DNCT) (UniProt P15116). The assay is described as follows: co-IP; anti-FLAG mAb preabsorbed to protein G-Sepharose on lysates of DsRed+, DNCT+ or DNCTSA+ MDCK T23 cells; lysis in 25 mM Tris-HCl pH 7.4, 1% Triton X-100, 2 mM EDTA; immunoblot of co-precipitates. A general note: A western blot detects proteins with antibodies after separation by electrophoresis.

By UniProt entry, the sequences of proteins in these tests, tags left out. Residues count along the entry.
UniProt P15116, residues 746-906: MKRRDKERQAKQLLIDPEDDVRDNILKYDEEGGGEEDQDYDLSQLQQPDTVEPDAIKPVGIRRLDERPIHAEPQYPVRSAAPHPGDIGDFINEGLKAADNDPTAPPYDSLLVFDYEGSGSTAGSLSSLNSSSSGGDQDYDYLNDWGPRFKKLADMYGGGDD

These are yes or no findings as the source states them, for the method shown. In cells and extracts the contact can be indirect. Some binding calls cover weakened binding; strength is not graded here.

B1: β-catenin (protein, UniProt B6V8E6 1-781)
chain: MATQADLMELDMAMEPDRKAAVSHWQQQSYLDSGIHSGATTTAPSLSGKGNPEEEDVDTTQVLYEWEQGFSQSFTQEQVADIDGQYAMTRAQRVRAAMFPETLDEGMQIPSTQFDAAHPTNVQRLAEPSQMLKHAVVNLINYQDDAELATRAIPELTKLLNDEDQVVVNKAAVMVHQLSKKEASRHAIMRSPQMVSAIVRTMQNTNDVETARCTAGTLHNLSHHREGLLAIFKSGGIPALVKMLGSPVDSVLFYAITTLHNLLLHQEGAKMAVRLAGGLQKMVALLNKTNVKFLAITTDCLQILAYGNQESKLIILASGGPQALVNIMRTYTYEKLLWTTSRVLKVLSVCSSNKPAIVEAGGMQALGLHLTDPSQRLVQNCLWTLRNLSDAATKQEGMEGLLGTLVQLLGSDDINVVTCAAGILSNLTCNNYKNKMMVCQVGGIEALVRTVLRAGDREDITEPAICALRHLTSRHQEAEMAQNAVRLHYGLPVVVKLLHPPSHWPLIKATVGLIRNLALCPANHAPLREQGAIPRLVQLLVRAHQDTQRRTSMGGTQQQFVEGVRMEEIVEGCTGALHILARDVHNRIVIRGLNTIPLFVQLLYSPIENIQRVAAGVLCELAQDKEAAEAIEAEGATAPLTELLHSRNEGVATYAAAVLFRMSEDKPQDYKKRLSVELTSSLFRTEPMAWNETADLGLDIGAQGEPLGYRQDDPSYRSFHSGGYGQDALGMDPMMEHEMGGHHPGADYPVDGLPDLGHAQDLMDGLPPGDSNQLAWFDTDL
For the molecule B1, the binding entry is reported as “binds”.
